In patent US20260026479A1, “GENETICALLY ENGINEERED MICE MODELS FOR MULTIPLE MYELOMA” (FUNDACIÓN PARA LA INVESTIGACIÓN MÉDICA APLICADA, priority 2022, published 2026):
At least one compound was matched to its structure with a doubt left.

Chains of the proteins cited; added tags and fusions are not shown. Lines headed by an entry give the natural chain unless they say otherwise; changes in a name come on top.
UniProt P01106: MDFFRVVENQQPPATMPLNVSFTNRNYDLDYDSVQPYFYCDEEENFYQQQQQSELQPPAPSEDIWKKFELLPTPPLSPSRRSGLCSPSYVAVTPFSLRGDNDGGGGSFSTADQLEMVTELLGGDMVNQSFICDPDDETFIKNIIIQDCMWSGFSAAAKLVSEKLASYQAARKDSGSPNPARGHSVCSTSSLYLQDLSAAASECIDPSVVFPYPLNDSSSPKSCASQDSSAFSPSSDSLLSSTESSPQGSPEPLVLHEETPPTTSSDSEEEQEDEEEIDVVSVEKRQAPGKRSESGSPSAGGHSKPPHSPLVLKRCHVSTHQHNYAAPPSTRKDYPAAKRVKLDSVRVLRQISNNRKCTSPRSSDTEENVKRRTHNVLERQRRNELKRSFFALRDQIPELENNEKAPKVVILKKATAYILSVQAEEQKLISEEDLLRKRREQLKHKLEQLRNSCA

Columns and labels:
[1] = target: T1, MYC (Homo sapiens, UniProt P01106); assay: MYC expression and phosphorylation after treatment (Western blot, qRT-PCR), human MM cell lines; assay type: cell-based
T1 construct: Western blot analysis of MYC protein expression in human MM cell lines; endogenous in cells; host or cells: human MM cell lines (of RPMI8226, KMS12, KMS26, KMS11, MM1S, U266, K620, JJN3, H929, MOLP2)
Method: (§1) A total of 1 μg of total RNA from GFP^+-sorted cells was isolated with a NucleoSpin RNA kit (Macherey-Nagel) and reverse transcribed into cDNA using MMLV enzyme technology (Invitrogen). PCR was performed on an ABI Viia7 instrument using SYBR green fluorophore and primers designed to amplify specific mouse or human genes. Specific primers are listed in the Key Resources Table.
(§2) Ten cell lines derived from MM patients (RPMI8226, KMS12, KMS26, KMS11, MM1S, U266, K620, JJN3, H929, and MOLP2) were included in this study. All have been validated according to the AmpFLSTR® Identifiler®, were tested for Mycoplasma sp.
(§3) Mice were monitored twice weekly for signs of disease and were then sacrificed. […] The samples that were able to grow for weeks ex vivo were tested for the presence of the original transgenic lesions and then characterized. Eight MM-derived cells lines established from mice carrying different lesions. In vitro therapy assays. For viability assays, murine or human MM cells were seeded in 96-well black culture plates and treated with different drugs alone or in combination for 48 hours. Cell viability was quantified using a Deep Blue Cell Viability™ Kit (Biolegend) and analyzed with a Skanit Varioskan Flash 2.4.3 (Thermo Scientific) fluorometer. Treatments were administered to cells at a density of 0.3×10^6 cells/ml, and all tests were performed in triplicate. After treatment, cells were subjected to qRT-PCR or Western blot analyses, as indicated, according to previously reported methods.

[2] = system: murine MM cells; assay: In vitro viability assay, murine MM-derived cell lines; assay type: cell-based, mouse; conditions: 48 hours, Deep Blue Cell Viability Kit
Method: as §3

[3] = system: ERK; assay: ERK phosphorylation Western blot, human MM cell lines; assay type: cell-based
[4] = system: human MM cells; assay: In vitro viability assay, human MM cell lines; assay type: cell-based; conditions: 48 hours, Deep Blue Cell Viability Kit
Method: as §2, §3

[5] = system: MYC; assay: MYC expression and phosphorylation after treatment (Western blot, qRT-PCR), mouse MM cell lines; assay type: cell-based
Method: as §1, §3

[6] = system: ERK; assay: ERK phosphorylation Western blot, mouse MM-derived cell lines; assay type: cell-based

## CC(=O)Nc1cccc(-n2c(=O)n(C3CC3)c(=O)c3c(Nc4ccc(I)cc4F)n(C)c(=O)c(C)c32)c1 [trametinib]
[1]; human MM cell lines
  phosphorylation of MYC at Ser62 (pMYC-S62): decreased phosphorylation
[1]; human MM cell lines (FIG. 13f)
  MYC gene expression at the RNA level: did not consistently change
[1]; human MM cell lines, Western blot
  MYC protein expression: dose-dependent MYC degradation
[2]
  MM cell viability: reduced mouse and human MM cell growth
[3]
  ERK phosphorylation: reversed ERK phosphorylation
[4]
  MM cell viability: reduced mouse and human MM cell growth
[5]; mouse MM cell lines
  phosphorylation of MYC at Ser62 (pMYC-S62): decreased phosphorylation
[5]; mouse MM cell lines (FIG. 13f)
  MYC gene expression at the RNA level: did not consistently change
[5]; mouse MM cell lines, Western blot
  MYC protein expression: dose-dependent MYC degradation
[6]
  ERK phosphorylation: reversed ERK phosphorylation
